{"source": "PubChem BioAssay AID652243 (Drosophila RNAi Screening Center, 2013)", "test": "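Fly regulators of androgen-dependent reporter output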 (primary screen)", "cell system": "Drosophila S2R+ cells", "reagent": "long dsRNA against Drosophila genes", "time to read-out": "72 h (48 h, then 24 h hormone)", "challenge": "synthetic androgen R1881 at 10 nM for 24 h", "detection": "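Firefly light from an androgen-responsive reporter and Renilla control light per well, raw and unnormalised, for each of two replicates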", "reading the numbers": "firefly reporter light: higher = more light from androgen-responsive reporter; Renilla control light: higher = more constitutive control signal (cell number, transfection)", "active means": "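Across duplicate plates, a knock-down whose log firefly/Renilla ratio shifted a set fold down or up from the GFP/LacZ control mean was a hit; the downward cut appears as both 1.5 and 3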", "meaning of the calls": "active = hit: reporter lowered or raised; inactive = no hit", "note": "The deposit covers about 24,000 reagents; this is a random part of those with a known target gene and a result. Over the whole deposit, 246 (1%) were called active. 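Plates not normalised; calls are printed but the firefly/Renilla ratio behind them is not deposited; fold cut for lowering reported inconsistently.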 Raw values vary from plate to plate and are shown uncorrected. Not stated in the record: the amount of reagent."}
{"Gene": "Mettl3", "dsRNA": "DRSC15921", "firefly reporter light, replicate 1": 1.17e5, "firefly reporter light, replicate 2": 1.74e5, "Renilla control light, replicate 1": 1.69e6, "Renilla control light, replicate 2": 2.28e6, "Outcome": "inactive"}
{"Gene": "Mettl3", "dsRNA": "DRSC27423", "firefly reporter light, replicate 1": 3.17e5, "firefly reporter light, replicate 2": 2.79e5, "Renilla control light, replicate 1": 6.48e5, "Renilla control light, replicate 2": 7.15e5, "Outcome": "inactive"}
{"Gene": "miple2", "dsRNA": "DRSC08723", "firefly reporter light, replicate 1": 1.23e5, "firefly reporter light, replicate 2": 95306, "Renilla control light, replicate 1": 1.10e6, "Renilla control light, replicate 2": 1.30e6, "Outcome": "inactive"}
{"Gene": "CG4390", "dsRNA": "DRSC15572", "firefly reporter light, replicate 1": 65909, "firefly reporter light, replicate 2": 82202, "Renilla control light, replicate 1": 4.29e5, "Renilla control light, replicate 2": 6.32e5, "Outcome": "inactive"}
{"Gene": "CG4390", "dsRNA": "DRSC26410", "firefly reporter light, replicate 1": 2.94e5, "firefly reporter light, replicate 2": 2.96e5, "Renilla control light, replicate 1": 6.51e5, "Renilla control light, replicate 2": 5.85e5, "Outcome": "inactive"}
{"Gene": "Esyt2", "dsRNA": "DRSC16082", "firefly reporter light, replicate 1": 24887, "firefly reporter light, replicate 2": 25920, "Renilla control light, replicate 1": 4.20e5, "Renilla control light, replicate 2": 4.06e5, "Outcome": "active"}
{"Gene": "CG30056", "dsRNA": "DRSC21752", "firefly reporter light, replicate 1": 4.34e5, "firefly reporter light, replicate 2": 4.78e5, "Renilla control light, replicate 1": 4.05e5, "Renilla control light, replicate 2": 4.67e5, "Outcome": "inactive"}
{"Gene": "Chrac-16", "dsRNA": "DRSC20343", "firefly reporter light, replicate 1": 2.32e5, "firefly reporter light, replicate 2": 2.19e5, "Renilla control light, replicate 1": 1.74e6, "Renilla control light, replicate 2": 2.06e6, "Outcome": "inactive"}
{"Gene": "Chrac-16", "dsRNA": "DRSC23575", "firefly reporter light, replicate 1": 1.09e6, "firefly reporter light, replicate 2": 4.84e5, "Renilla control light, replicate 1": 6.64e5, "Renilla control light, replicate 2": 4.73e5, "Outcome": "inactive"}
{"Gene": "mRpL14", "dsRNA": "DRSC18597", "firefly reporter light, replicate 1": 1.52e5, "firefly reporter light, replicate 2": 1.61e5, "Renilla control light, replicate 1": 2.37e6, "Renilla control light, replicate 2": 2.65e6, "Outcome": "inactive"}
{"Gene": "mRpL14", "dsRNA": "DRSC24034", "firefly reporter light, replicate 1": 4.54e5, "firefly reporter light, replicate 2": 3.78e5, "Renilla control light, replicate 1": 3.34e5, "Renilla control light, replicate 2": 4.02e5, "Outcome": "inactive"}
{"Gene": "Ror", "dsRNA": "DRSC03414", "firefly reporter light, replicate 1": 2.33e5, "firefly reporter light, replicate 2": 2.94e5, "Renilla control light, replicate 1": 1.55e6, "Renilla control light, replicate 2": 2.39e6, "Outcome": "inactive"}
{"Gene": "Ror", "dsRNA": "DRSC36669", "Outcome": "inactive"}
{"Gene": "Ror", "dsRNA": "DRSC36670", "Outcome": "inactive"}
